This is one part of the list.

The test system of the test is SARS-CoV-2 5_SL7 RNA. Description: NMR binding call after quantification (hit when 2 of 3 NMR criteria are met) (binary (1 = binding, 0 = not binding)); higher = binding. Particulars: RNA concentration 10 µM; fragment concentration 200 µM; 293 K.
In turn, `COCC(=O)Nc1ccc(O)cc1` displayed an NMR binding call of 0. Next, `Cc1nc2ccccc2n1CCC(N)=O`: 0; `Cc1nc(CC(=O)N2CCOCC2)cs1`: 0.

For the compound `CCc1ccc(OCC(=O)N2CCCCC2)cc1`, the NMR binding call amounted to 0. Regarding `CCOC(=O)C1CCN(c2cnccn2)CC1`, the NMR binding call is 0. In the case of `CC1CCN(C(=O)CCCc2ccccc2)CC1` it was 0; in that of `CCOc1ncccc1C(N)=O`, 0. In the case of `CNC(=O)Nc1nc2ccc(OC)cc2s1` it was 1; in that of `CCn1c(NC(C)=O)nc2ccccc21`, 0; in that of `COCc1cc(C(N)=O)no1`, 0. Compound `COc1ccccc1NC(=O)c1ccc(C)s1` had an NMR binding call of 0. In turn, `CNCCC1CCCCC1` came in with an NMR binding call of 0. For the compound `OC1CCN(Cc2ccsc2)CC1`, the NMR binding call was 0. With `NC(=S)Nc1ccccc1OC(F)(F)F`, the NMR binding call amounted to 0.

In the case of `CC(=O)N1Cc2ccc(N)cc2C1`, the NMR binding call turned out to be 0. As to `CN1CCN(C(=O)Nc2ccccc2)CC1`, the NMR binding call was determined as 0. In turn, `CCNC(=O)N1CCN(C(C)=O)CC1` returned an NMR binding call of 0. `Cc1ncsc1C(=O)N1CCNC(=O)C1` returned an NMR binding call of 0. Next, `COCC(=O)Nc1nc(-c2ccccc2)cs1`: 0; `O=C(NCc1ccccc1)c1cccc(F)c1`: 0; `C1CN(Cc2nc(C3CC3)no2)CCO1`: 0.

For `CCN(CC)S(=O)(=O)c1ccc(C)cc1`, the NMR binding call is 0.

Turning to `CC1CCC(NC2CCC(O)CC2)CC1` (configuration not stated), the NMR binding call worked out at 0. Next, `CNC(=O)CNc1ncnc2sccc12`: 0; `Cc1cnc(NC(=O)CCC2CCCC2)s1`: 0; `CC1(C)CN(c2ncccc2F)CC1O` (configuration not stated): 0. With `CSc1nsc(NC(C)=O)n1`, the NMR binding call stood at 0.

For the origin of these results see the supplement of paper PMC8426693.
